Data source: PubChem BioAssay AID686937 (Drosophila RNAi Screening Center, 2013)

Purpose: 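Knock-downs that reduce output of a secreted reporter enzyme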 (primary screen)
Cells: Drosophila S2 cells expressing secreted horseradish peroxidase
Reagent: long dsRNA against Drosophila genes
Timing: about 5.5 days (5 days dsRNA, then 12 h reporter induction)
Treatment: reporter expression induced after 5 days of dsRNA, read 12 h later; inducer not stated
Detection: 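Chemiluminescent measurement of peroxidase in the medium 12 h after reporter induction, following 5 days of dsRNA, given as a z-score per plate; higher means more secretion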
Scale: z-score: higher = more reporter secreted into medium
The deposit covers about 23,000 reagents; this is a random part of those that have a named target and a result. 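Reduced-secretion tags in replicate 1 do not always agree with the z-scores; no criterion for assigning the tags was given.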 Names joined by + are all predicted targets of the reagent. Further read-outs or replicates are left out here. Not stated in the record: the amount of reagent.

gene knocked down | PubChem SID | z-score, replicate 1 | z-score, replicate 2
5-HT2A (5-hydroxytryptamine (serotonin) receptor 2A) | SID104191782 | 0.14 | 0.32
CG31659 | SID104180552 | 0.17 | 0.27
rn (rotund) | SID104192292 | -4.08 | -5
rn (rotund) | SID104192335 | 0.4 | 0.44
rn (rotund) | SID104192336 | 0.12 | 0.05
rn (rotund) | SID104192338 | -0.17 | 0.07
rn (rotund) | SID104201807 | 0.73 | 0.85
CG13038 | SID104189711 | 0.36 | 0.08
Bulli | SID104190766 | 0.24 | 0.18
CG32625 | SID104198786 | 0.51 | 0.51
scw (screw) | SID104181503 | -0.14 | 0.05
scw (screw) | SID104201044 | 0.55 | 0.16
stg (string) | SID104196863 | -0.47 | -0.54
lncRNA:CR43632 (long non-coding RNA:CR43632) | SID104193522 | 0.08 | 0.43
Nek2 | SID104197916 | 0.06 | 0.38
CG17999 | SID104184092 | 0.25 | 0.47
PNPase (Polynucleotide phosphorylase) | SID104194096 | 0.45 | 0.37
CG42816 | SID104191022 | 0.19 | 0.29
Pis (Phosphatidylinositol synthase) | SID104199970 | 0.1 | 0.19
CG6333 | SID104190418 | 0.32 | 0.4
Reck (Reversion-inducing-cysteine-rich protein with kazal motifs) | SID104190296 | 0.35 | 0.25
Reck (Reversion-inducing-cysteine-rich protein with kazal motifs) | SID104190297 | 0.42 | 0.47
btd (buttonhead) | SID104198539 | 0.3 | 0.2
CG13326 | SID104186155 | 0.32 | 0.32
CG5776 | SID104182683 | 0.47 | 0.41
tum (tumbleweed) | SID104187367 | -0.49 | -0.34
CG11562 | SID104180108 | 0.29 | 0.14
CG15233 | SID104184759 | 0.3 | 0.31
CG7912 | SID104196135 | 0.05 | 0.03
CG4679 | SID104186672 | -0.23 | -0.05
CG13671 | SID104189822 | 0.09 | 0.2
Pfrx (6-phosphofructo-2-kinase) | SID104198648 | 0.54 | 0.23
Pfrx (6-phosphofructo-2-kinase) | SID104199107 | 0.09 | -0.2
CG43254 | SID104192430 | -0.09 | 0.08
Alp1 (Alkaline phosphatase 1) | SID104191573 | 0.21 | 0.36
ome (omega) | SID104189114 | -0.07 | 0.14
ome (omega) | SID104190074 | -0.23 | 0.25
ome (omega) | SID104191172 | 0.17 | 0.22
vers (versatile) | SID104190507 | -0.55 | -0.55
rho (rhomboid) | SID104188526 | 0.17 | 0.09
CG31821 | SID104201709 | -0.31 | -0.03
Srg1 (Sting-regulated gene 1) | SID104194432 | 0.27 | 0.25
ltl (larval translucida) | SID104189998 | 0.18 | 0.07
ltl (larval translucida) | SID104190662 | 0.21 | 0.17
CG8517 | SID104186997 | 0.62 | 0.31
CG33462 | SID104202261 | -0.38 | -0.58
CG46339 | SID104193928 | 0.24 | 0.28
Rpe (Ribulose-5-phosphate-3-epimerase) | SID104186199 | 0.54 | 0.43
Ptth (Prothoracicotropic hormone) | SID104180148 | 0.13 | 0.14
CG17760 | SID104186486 | 0.46 | -0.29
Shmt (Serine hydroxymethyl transferase) | SID104198056 | 0.24 | 0.16
CG31038 | SID104194843 | 0.28 | 0.47
CG31038 | SID104196118 | 0.2 | 0.35
CG31038 | SID104196119 | -0.08 | -0.15
CG14131 | SID104189927 | -0.58 | -0.3
CG6709 + Hez | SID104189957 | 0.3 | 0.27
CG6709 + Hez | SID104190490 | 0.48 | 0.13
Gr9a (Gustatory receptor 9a) | SID104201956 | 0.13 | 0.1
CG9062 | SID104187119 | 0.29 | 0.24
CG34175 | SID104180216 | 0.05 | 0.43
CG7142 | SID104195996 | 0.41 | 0.51
Ak6 (Adenylate kinase 6) | SID104187066 | 0.42 | 0.21
Os-C | SID104196570 | 0.19 | 0.14
CG31710 | SID104180881 | 0.5 | 0.31
CG31710 | SID104202222 | 0.68 | 0.43
Pnn (Pinin) | SID104196207 | 0.32 | 0.54
obst-G (obstructor-G) | SID104190895 | 0.07 | 0.08
spas (spastin) | SID104195721 | 0.51 | 0.54
yl (yolkless) | SID104200179 | 0.26 | 0.17
CG4313 | SID104198306 | 0.26 | 0.39
bark (bark beetle) | SID104180427 | 0.35 | 0.27
Alp10 (Alkaline phosphatase 10) | SID104189541 | 0.09 | 0.22
CG10116 | SID104189492 | 0.47 | 0.35
CG34028 | SID104197406 | 0.48 | 0.11
CG9016 | SID104182919 | 0.1 | 0.21
CG8950 | SID104187092 | 0.29 | 0.28
Atg12 (Autophagy-related 12) | SID104189595 | 0.59 | 0.21
CG14857 | SID104194773 | -0.12 | 0.45
CG4269 | SID104184249 | 0.45 | 0.16
TwdlM (TweedleM) | SID104195602 | 0.42 | 0.85
CSN3 (COP9 signalosome subunit 3) | SID104191651 | -1.21 | -2.11
g (garnet) | SID104200127 | -0.9 | -0.2

12 entries from above, sorted by “z-score, replicate 2”, highest first:
gene knocked down | PubChem SID | z-score, replicate 1 | z-score, replicate 2
CG17999 | SID104184092 | 0.25 | 0.47
Reck (Reversion-inducing-cysteine-rich protein with kazal motifs) | SID104190297 | 0.42 | 0.47
CG5776 | SID104182683 | 0.47 | 0.41
CG6333 | SID104190418 | 0.32 | 0.4
PNPase (Polynucleotide phosphorylase) | SID104194096 | 0.45 | 0.37
CG13326 | SID104186155 | 0.32 | 0.32
CG42816 | SID104191022 | 0.19 | 0.29
Reck (Reversion-inducing-cysteine-rich protein with kazal motifs) | SID104190296 | 0.35 | 0.25
btd (buttonhead) | SID104198539 | 0.3 | 0.2
Pis (Phosphatidylinositol synthase) | SID104199970 | 0.1 | 0.19
CG11562 | SID104180108 | 0.29 | 0.14
tum (tumbleweed) | SID104187367 | -0.49 | -0.34
